PubChem BioAssay AID540276 (National Center for Advancing Translational Sciences (NCATS), 2011)
About 5,400 (1.8%) of roughly 300,000 compounds were called active. The shares of active, inactive and inconclusive entries below differ from those in the screen. Calls come from the whole dose curve; tested in HEK293 cells. Potencies of inconclusive entries are doubtful fits and often do not repeat.

Assay: qHTS for inhibitors of binding or entry into cells for Marburg Virus
Conditions: Marburg virus pseudotyped entry inhibition, cell reporter; series mostly up to 37.8 µM
Potency is the fitted concentration of half-maximal effect.

Structure (SMILES) | Potency
COC(=O)C1=C(C)NC(C)=C(C(=O)OC)C1C1CC=CCC1 (centres undefined) | inconclusive: 11.2 µM [inhibitor, partial curve, poor fit]
C#CCN(C)CC/C=C1\c2ccccc2CSc2ccccc21 | inconclusive: 17.8 µM [inhibitor, single point]
CCOc1cc(C(=O)OCC(=O)NCc2ccco2)cc(OCC)c1OCC | inactive
CCCN(CCC)S(=O)(=O)c1ccc(NC(=O)C2CCCO2)cc1 (centres undefined) | inconclusive: 3.16 µM [activator, single point]
Cc1cc2c(c(=O)o1)[C@H]1O[C@](c3ccsc3)(Cc3cc(C#N)ccc31)O2 | inconclusive: 2.66 µM [inhibitor, single point]
CC(C)CO/N=C1\C[C@@H](O)[C@@H](O)[C@@H]2[C@@H]3C(=O)N(Cc4ccc5c(c4)OCO5)C(=O)[C@@H]3CC[C@H]12 | inactive
CCOC(=O)C1(CCOC)CCN(Cc2cc3ccccc3s2)CC1 | inconclusive: 31.6 µM [inhibitor, single point]
COc1ccc(OCCSc2ncccn2)cc1 | inconclusive: 0.231 µM [activator, full curve, poor fit]
C[C@@H](N)C(=O)N[C@H]1CCC2C3CC=C4C[C@@H](O)CC[C@]4(C)C3CC[C@@]21C (some centres undefined) | inconclusive: 14.1 µM [inhibitor, partial curve, poor fit]
COc1ccc(F)cc1S(=O)(=O)NCC(c1ccco1)N1CCc2ccccc2C1 (centres undefined) | inconclusive: 20 µM [inhibitor, partial curve, poor fit]
O=C(NCc1ccco1)/C(=C/c1cccc([N+](=O)[O-])c1)NC(=O)c1ccco1 | inconclusive: 31.6 µM [activator, single point]
COc1ccccc1C(CC(=O)Nc1ccc(C)c(C)c1)c1ccc(OC(C)C)cc1 (centres undefined) | inconclusive: 8.91 µM [inhibitor, partial curve, poor fit]
Cc1cccc(OCCC(=O)Nc2ccc(S(=O)(=O)N3CCCC3)cc2)c1 | inconclusive: 10 µM [inhibitor, partial curve, poor fit]
CC1CCN(S(=O)(=O)c2ccc(C(=O)Nc3nnc(-c4ccncc4)o3)cc2)CC1 | inconclusive: 7.08 µM [inhibitor, partial curve, poor fit]
Cc1ccc(CN2COc3ccc4c(-c5ccccc5)cc(=O)oc4c3C2)cc1 | inactive
C(=N\Nc1ccccn1)/c1c[nH]c2ccccc12 | inconclusive: 3.55 µM [inhibitor, full curve]
Cc1nnsc1C(=O)N/N=C/c1ccccc1Cl | inconclusive: 2 µM [activator, partial curve]
CCc1cc(C(=O)NCc2ccccc2)no1 | inconclusive: 1.41 µM [activator, full curve]
O=c1[nH]c(/C=C\c2cccnc2)c([N+](=O)[O-])c(=O)[nH]1 | inactive
COc1ccccc1C(=O)NC1CCCc2ccccc21 (centres undefined) | inconclusive: 7.94 µM [inhibitor, partial curve, poor fit]
O=C(NCc1ccccc1)C(=O)Nc1ccc2nc3n(c(=O)c2c1)CCCCC3 | inconclusive: 35.5 µM [inhibitor, single point]
Cc1ccc(C(OCC(O)CNC(CO)C(O)c2ccc([N+](=O)[O-])cc2)c2ccccc2)cc1 (centres undefined) | inconclusive: 12.6 µM [inhibitor, partial curve, poor fit]

Structure (SMILES) | Potency
CC(=O)Nc1ccc(Nc2nc(C)c([N+](=O)[O-])c(Nc3ccccc3)n2)cc1 | inconclusive: 11.6 µM [inhibitor, partial curve, poor fit]
CCOc1ccc(CCNC(=O)C2CCCN(S(=O)(=O)N3CC(C)CC(C)C3)C2)cc1OCC (centres undefined) | inconclusive: 0.631 µM [inhibitor, full curve, poor fit]
CC1CC(C)CN(CCOc2ccc(Br)cc2)C1 (centres undefined) | inconclusive: 6.31 µM [inhibitor, full curve, poor fit]
Cc1ccc(NC(=O)CC2NCCNC2=O)cc1 (centres undefined) | inactive
NC(=O)C1CCN(C(=O)c2ccc(-c3ccccc3Cl)o2)CC1 | inconclusive: 35.5 µM [activator, single point]
Cc1cc(NC(=O)CCC(=O)N(CCc2ccccc2)C(C(=O)NC2CCCC2)c2ccco2)no1 (centres undefined) | inconclusive: 25.1 µM [inhibitor, single point]
COc1ccc(-c2noc(-c3ccc(N4CCN(c5ccccc5)CC4)c([N+](=O)[O-])c3)n2)cc1 | inactive
COc1ccc(OC)c(Nc2nc(NCCC(C)C)nc(N)c2[N+](=O)[O-])c1 | inconclusive: 17.8 µM [inhibitor, single point]
COc1ccc(C(C)(C)C)cc1NC(=O)COC(=O)c1cc(SC)ccc1Cl | inconclusive: 10 µM [activator, partial curve, poor fit]
Brc1ccc(-c2csc(N/N=C/c3ccco3)n2)cc1 | inconclusive: 3.55 µM [activator, full curve]
CCC(C)n1c(NC(=O)c2ccccc2)c(C#N)c2nc3ccccc3nc21 (centres undefined) | inconclusive: 25.1 µM [inhibitor, partial curve, poor fit]
Cc1ccc(NC(=O)Nc2sc3nc4n(c(=O)c3c2C)CCC(C)CC4)c(Cl)c1 (centres undefined) | inconclusive: 2.24 µM [inhibitor, full curve]
CSc1ccc(NC(=O)CC(C)=O)cc1 | inactive
Cc1ccc(CNC(=O)C2CSC3(C)CCC(=O)N23)cc1 (centres undefined) | inconclusive: 10 µM [inhibitor, partial curve, poor fit]
COc1ccc(N2CCN(C(=O)CN(C3CCCCC3)S(C)(=O)=O)CC2)cc1 | inconclusive: 8.91 µM [inhibitor, partial curve]
Cc1occc1C(=O)NC1CCCCCCC1 | inconclusive: 13 µM [activator, partial curve]
CCN(c1ccccc1)S(=O)(=O)c1ccc(Cl)c(NC(=O)Nc2ccc(Cl)cc2C#N)c1 | inconclusive: 5.8 µM [inhibitor, full curve, poor fit]
COc1ccc(S(N)(=O)=O)cc1C(=O)NNC(=O)CN(C)S(=O)(=O)c1ccc(Cl)cc1 | inconclusive: 31.6 µM [activator, partial curve, poor fit]
CCOc1cc(C(c2c(C)[nH][nH]c2=O)c2c(C)[nH][nH]c2=O)ccc1O | inconclusive: 23.1 µM [inhibitor, partial curve, poor fit]
COc1cc2c(cc1OC)[C@H](C)N(C(=O)NCc1ccccc1)CC2 | inconclusive: 3.16 µM [inhibitor, single point]
CC(C)=Cc1oc2ccc([N+](=O)[O-])cc2c1N1CCOCC1 | inconclusive: 1 µM [inhibitor, full curve, poor fit]
CCC(=O)Oc1ccc(C(=O)Nc2ccc([N+](=O)[O-])cc2)cc1 | inconclusive: 2.82 µM [activator, single point]

2 of these compounds, reformatted:
Cc1cc(NC(=O)CCC(=O)N(CCc2ccccc2)C(C(=O)NC2CCCC2)c2ccco2)no1 (centres undefined)
  Potency: inconclusive: 25.1 µM [inhibitor, single point]
COc1ccc(C(C)(C)C)cc1NC(=O)COC(=O)c1cc(SC)ccc1Cl
  Potency: inconclusive: 10 µM [activator, partial curve, poor fit]

Further entries.

Structure (SMILES) | Potency
O=C(CN1CCC(Cc2ccccc2)CC1)N1CCc2ccccc2C1 | inconclusive: 11.2 µM [inhibitor, partial curve, poor fit]
O=C(CN1CCCC1)NCC12CC3CC(CC(C3)C1)C2 | inconclusive: 8.2 µM [inhibitor, partial curve, poor fit]
COc1cc(CC(=O)OCC(=O)N2CC(C)CC(C)C2)cc(OC)c1OC (centres undefined) | inconclusive: 35.5 µM [inhibitor, single point]
Cc1ccc2c(COC(=O)C34CC5CC(CC(C5)C3)C4)cc(=O)oc2c1 | inconclusive: 0.126 µM [activator, full curve, poor fit]
O=C(NC(=S)NC1CCCCCC1)c1cncc(Br)c1 | inconclusive: 5.62 µM [activator, single point]
CC(C)CNS(=O)(=O)c1ccc(OCC(=O)NCC2CCCO2)c(Cl)c1 (centres undefined) | inactive
COc1ccc(N2C(=O)CC(S/C(N)=N/N=C(\C)c3cccs3)C2=O)cc1 (centres undefined) | inconclusive: 4.11 µM [activator, full curve, poor fit]
Cc1ccc(N(Cc2cc3ccccc3[nH]c2=O)S(=O)(=O)c2ccccc2)cc1 | inconclusive: 0.562 µM [activator, partial curve, poor fit]
COc1cc(N=C2C(=O)N3c4c(cccc42)C(C)=CC3(C)C)cc(OC)c1 | inactive
COc1cc(CNc2ccc(CNc3ncn[nH]3)cc2)ccc1OCc1ccccc1 | inconclusive: 22.4 µM [inhibitor, single point]
Cc1cc(C)c2nc(C)cc(Nc3ccc(C(=O)N4CCOCC4)cc3)c2c1 | inconclusive: 8.91 µM [inhibitor, partial curve, poor fit]
C[C@@H](c1ccccc1)N1C(=O)[C@@H]2[C@H]3[C@H](O)[C@H](O)CC(=NOC[C@@H](O)COCc4ccco4)[C@H]3CC[C@H]2C1=O | inactive
COc1ccc(CN2CC(=O)N(c3ccc(C)cc3C)C2=S)cc1OC | inactive
O=C(O)Cc1ccc(C(=O)c2cccs2)s1 | inactive
CCOc1ccccc1N(C(=O)CNS(=O)(=O)c1ccccc1)C(CC)C(=O)NCc1ccco1 (centres undefined) | inconclusive: 7.3 µM [inhibitor, partial curve]
O=C(NCc1cccs1)c1ccccc1C(=O)NCc1cccs1 | inactive
CC1=NNC(=O)C1Cc1ccc(F)cc1 (centres undefined) | inactive
O=C(N/N=C/C=C/c1ccccc1[N+](=O)[O-])c1ccncc1 | inactive
COc1cccc(OCC(=O)O)c1 | inactive
Nc1cc(C(=O)OCC(=O)NNC(=O)c2ccccc2)ccc1Cl | inconclusive: 5.62 µM [activator, single point]

Some of the entries so far, with each value named.
O=C(CN1CCCC1)NCC12CC3CC(CC(C3)C1)C2
  Potency: inconclusive: 8.2 µM [inhibitor, partial curve, poor fit]
COc1cc(CC(=O)OCC(=O)N2CC(C)CC(C)C2)cc(OC)c1OC (centres undefined)
  Potency: inconclusive: 35.5 µM [inhibitor, single point]
Cc1ccc2c(COC(=O)C34CC5CC(CC(C5)C3)C4)cc(=O)oc2c1
  Potency: inconclusive: 0.126 µM [activator, full curve, poor fit]
O=C(NC(=S)NC1CCCCCC1)c1cncc(Br)c1
  Potency: inconclusive: 5.62 µM [activator, single point]
